PubChem BioAssay AID1259281, Sanger Institute, 2017
Here is one part, drawn at random, of 794 reagents. Of all reagents, 22 (2.8%) were called active. 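Calls rest on knock-down alone only; drug synergy scores play no part in them.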 Entries without a mark were called inactive. No viability above 1 is reported: the scale is capped. Not all columns of the deposit are shown. Not given: the amount of reagent, the time to read-out.

Screen: 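Find knock-downs that kill colorectal cancer cells alone or strengthen targeted drugs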 (primary screen)
Cell system: human COLO678 colorectal cancer cell line
Reagents: siRNA pool against human genes
Conditions: anchor drugs at fixed doses: BYL719 1 µM, cetuximab 5 µg/ml or trametinib 10 nM; DMSO vehicle for the siRNA-alone arm
Measured: 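Cell viability compared with non-targeting pool wells, averaged over replicates; knock-down-alone effect also as robust z-score; synergy scores set knock-down plus drug against expected joint effect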
Reading the numbers: robust z-score, siRNA alone: higher = more viable cells; strongly negative means essential; viability, siRNA alone: higher = more surviving cells
Units: viability, siRNA alone in fraction of control
Active means: 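Essential (knock-down alone) when the siRNA-alone robust z-score is below -3; otherwise no change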
Meaning of the calls: active = essential (knock-down alone); inactive = no change

MTOR (mechanistic target of rapamycin kinase) — robust z-score, siRNA alone = 0.473; viability, siRNA alone = 1
SMAD2 (SMAD family member 2) — robust z-score, siRNA alone = 0.473; viability, siRNA alone = 1
MAP3K6 (mitogen-activated protein kinase kinase kinase 6) — robust z-score, siRNA alone = 0.27; viability, siRNA alone = 0.994
GUCY2D (guanylate cyclase 2D, retinal) — robust z-score, siRNA alone = -3.1 (active); viability, siRNA alone = 0.886
RELA (RELA proto-oncogene, NF-kB subunit) — robust z-score, siRNA alone = -0.89; viability, siRNA alone = 0.957
DLG1 (discs large MAGUK scaffold protein 1) — robust z-score, siRNA alone = 0.473; viability, siRNA alone = 1
PRKACA (protein kinase cAMP-activated catalytic subunit alpha) — robust z-score, siRNA alone = 0.473; viability, siRNA alone = 1

A portion from the list above, as a working copy:
MTOR (mechanistic target of rapamycin kinase) — robust z-score, siRNA alone = 0.473; viability, siRNA alone = 1
SMAD2 (SMAD family member 2) — robust z-score, siRNA alone = 0.473; viability, siRNA alone = 1

Continued.
DMPK (DM1 protein kinase) — robust z-score, siRNA alone = 0.473; viability, siRNA alone = 1
TAOK2 (TAO kinase 2) — robust z-score, siRNA alone = 0.473; viability, siRNA alone = 1
BRSK1 (BR serine/threonine kinase 1) — robust z-score, siRNA alone = 0.473; viability, siRNA alone = 1
CDK17 (cyclin dependent kinase 17) — robust z-score, siRNA alone = 0.473; viability, siRNA alone = 1
STKLD1 (serine/threonine kinase like domain containing 1) — robust z-score, siRNA alone = -1.12; viability, siRNA alone = 0.949
